From PMC8547954, “Myopalladin knockout mice develop cardiac dilation and show a maladaptive response to mechanical pressure overload” (eLife, 2021)

Target: titin Ig domains Z4-Z5 in pGBKT7 DNA-BD (human)
Experiment: two-hybrid; co-transformation of pGBKT7 DNA-BD and pGADT7 AD constructs into the Y2H Gold strain; SD/-Ade/-His/-Leu/-Trp with 120 ng/ml Aureobasidin A and 40 µg/ml X-alpha-Gal, 3-4 days at 30°C

binding | Binder
binds | PALLD C-terminal region (Res. 794-1123) in pGADT7 (domain or fragment, UniProt Q8WX93-9 794-1123) PFFEMKLKHYKIFEGMPVTFTCRVAGNPKPKIYWFKDGKQISPKSDHYTIQRDLDGTCSLHTTASTLDDDGNYTIMAANPQGRISCTGRLMVQAVNQRGRSPRSPSGHPHVRRPRSRSRDSGDENEPIQERFFRPHFLQAPGDLTVQEGKLCRMDCKVSGLPTPDLSWQLDGKPVRPDSAHKMLVRENGVHSLIIEPVTSRDAGIYTCIATNRAGQNSFSLELVVAAKEAHKPPVFIEKLQNTGVADGYPVRLECRVLGVPPPQIFWKKENESLTHSTDRVSMHQDNHGYICLLIQGATKEDAGWYTVSAKNEAGIVSCTARLDVYISRH
binds | MYPN C-terminal region from residue 935 to 1320, containing its three C-terminal Ig domains (domain or fragment, UniProt Q86TC9-1 935-1320) DEIPTGKCIAPIFDKRLKHFRVTEGSPVTFTCKIVGIPVPKVYWFKDGKQISKRNEHCKMRREGDGTCSLHIESTTSDDDGNYTIMAANPQGRISCSGHLMVQSLPIRSRLTSAGQSHRGRSRVQERDKEPLQERFFRPHFLQAPGDMVAHEGRLCRLDCKVSGLPPPELTWLLNGQPVLPDASHKMLVRETGVHSLLIDPLTQRDAGTYKCIATNKTGQNSFSLELSVVAKEVKKAPVILEKLQNCGVPEGHPVRLECRVIGMPPPVFYWKKDNETIPCTRERISMHQDTTGYACLLIQPAKKSDAGWYTLSAKNEAGIVSCTARLDIYAQWHHQIPPPMSVRPSGSRYGSLTSKGLDIFSAFSSMESTMVYSCSSRSVVESDEL

No constants are given. Whether binding was seen depends on the method and setting. A result given as binding can be weak or reduced; the word gives no strength.
